From PMC11443168 come the findings set out here.

By UniProt entry, the sequences of proteins in these tests, tags left out. Residues count along the entry.
UniProt P30101, residues 25-505: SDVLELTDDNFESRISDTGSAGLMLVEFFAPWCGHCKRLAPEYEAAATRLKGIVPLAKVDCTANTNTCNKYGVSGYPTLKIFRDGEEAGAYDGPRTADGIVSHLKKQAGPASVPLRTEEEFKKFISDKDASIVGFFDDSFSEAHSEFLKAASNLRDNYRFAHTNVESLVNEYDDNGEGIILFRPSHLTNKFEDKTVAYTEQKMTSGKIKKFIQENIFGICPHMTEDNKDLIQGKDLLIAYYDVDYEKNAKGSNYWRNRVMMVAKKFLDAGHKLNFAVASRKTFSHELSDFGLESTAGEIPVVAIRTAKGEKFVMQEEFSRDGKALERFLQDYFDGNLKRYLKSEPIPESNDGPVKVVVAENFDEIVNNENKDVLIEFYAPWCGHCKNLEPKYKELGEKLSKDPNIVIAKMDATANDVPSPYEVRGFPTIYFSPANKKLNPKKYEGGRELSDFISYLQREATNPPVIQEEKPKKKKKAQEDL
UniProt P07237, residues 18-508: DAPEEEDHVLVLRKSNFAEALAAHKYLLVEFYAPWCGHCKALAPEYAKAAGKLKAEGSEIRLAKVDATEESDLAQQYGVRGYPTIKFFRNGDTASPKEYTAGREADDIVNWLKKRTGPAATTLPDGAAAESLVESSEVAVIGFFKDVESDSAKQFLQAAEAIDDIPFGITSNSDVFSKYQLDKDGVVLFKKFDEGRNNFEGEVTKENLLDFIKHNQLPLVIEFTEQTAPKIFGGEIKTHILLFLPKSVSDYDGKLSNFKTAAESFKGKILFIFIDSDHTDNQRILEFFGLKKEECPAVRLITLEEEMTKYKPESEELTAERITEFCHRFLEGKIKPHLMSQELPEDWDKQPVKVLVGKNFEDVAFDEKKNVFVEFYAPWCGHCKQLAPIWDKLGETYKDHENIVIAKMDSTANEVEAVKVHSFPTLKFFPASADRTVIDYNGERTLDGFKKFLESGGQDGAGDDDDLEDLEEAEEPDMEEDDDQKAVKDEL

These are yes or no findings as the source states them, for the method shown. In cells and extracts the contact can be indirect. These calls come from enrichment with a bait or labelling near it, and not all partners need be listed. Tags and fused reporters may be left off the sequences shown.

To fix the notation:
T1: TMX5/TXNDC15, V5-tagged (TMX5-V5 WT) (UniProt Q96J42)
T1 sequence: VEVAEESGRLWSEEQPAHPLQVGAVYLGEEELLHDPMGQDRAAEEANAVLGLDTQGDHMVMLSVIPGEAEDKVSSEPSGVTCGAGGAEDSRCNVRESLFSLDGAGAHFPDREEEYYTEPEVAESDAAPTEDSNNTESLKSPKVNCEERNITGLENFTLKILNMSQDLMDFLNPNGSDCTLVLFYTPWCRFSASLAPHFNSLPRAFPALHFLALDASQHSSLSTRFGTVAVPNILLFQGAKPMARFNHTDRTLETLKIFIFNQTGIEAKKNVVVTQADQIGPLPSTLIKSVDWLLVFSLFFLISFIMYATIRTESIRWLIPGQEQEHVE

B1: endogenous ERp44 (protein, UniProt Q9BS26 30-406)
chain: EITSLDTENIDEILNNADVALVNFYADWCRFSQMLHPIFEEASDVIKEEFPNENQVVFARVDCDQHSDIAQRYRISKYPTLKLFRNGMMMKREYRGQRSVKALADYIRQQKSDPIQEIRDLAEITTLDRSKRNIIGYFEQKDSDNYRVFERVANILHDDCAFLSAFGDVSKPERYSGDNIIYKPPGHSAPDMVYLGAMTNFDVTYNWIQDKCVPLVREITFENGEELTEEGLPFLILFHMKEDTESLEIFQNEVARQLISEKGTINFLHADCDKFRHPLLHIQKTPADCPVIAIDSFRHMYVFGDFKDVLIPGKLKQFVFDLHSGKLHREFHHGPDPTDTAPGEQAQDVASSPPESSFQKLAPSEYRYTLLRDRDEL

In this test the target is T1, TMX5/TXNDC15, V5-tagged (TMX5-V5 WT). The test is described as follows: affinity purification with mass spectrometry; V5-tagged TMX5 double-immunoprecipitated with anti-V5 beads from HEK293 RIPA lysates; non-reducing and reducing SDS-PAGE, silver stain; gel regions above TMX5 cut, in-gel trypsin digestion, LC/MS; proteins present in the non-reducing and absent in the reducing region taken as mixed-disulfide partners.
With “endogenous ERp57 (PDIA3) (from UniProt P30101 25-505)”, the binding result is “binds”.
The result for “endogenous PDI (PDIA1) (from UniProt P07237 18-508)” reads “binds”; that for B1, “binds”.
